# PubChem BioAssay AID445 (National Center for Advancing Translational Sciences (NCATS), 2006)
# This is one part of the list. Shown are side measurements of this screen, not its main read-out; they come without a call. The list favours compounds with an active or inconclusive main result. The note in brackets gives the kind of curve behind each potency; many fits are weak.
# Assay: IkB Signaling
# Conditions: ABC-DLBCL IkBa-CBG/CBR dual luciferase ratio (green luciferase fused to IkBa over red control in OCI-Ly3 lymphoma cells), 4 h
# Summary of the method: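 In this assay, an IκBα–CBG68 fusion accumulates when IKK-driven degradation is blocked; native CBR normalizes for cell number. OCI-Ly3 cells were treated 4 h with compound and doxycycline, then green and red light read after Chroma-Glo addition.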
# [1] = measured here: control luc red channel unless noted
compound,measurement,setting,value
COc1ccccc1CNC(=O)C(Cc1ccccc1)NS(=O)(=O)c1ccc2c(c1)oc(=O)n2C (stereo not drawn),AC50,[1],"25.1 µM [falling, partial curve]"
c1ccc(-c2nc(N3CCCCCC3)c3ccccc3n2)nc1,AC50,[1],"31.6 µM [falling, partial curve]"
O=C1CC(c2nc3ccccc3n2CCCCOc2ccccc2)CN1c1ccccc1Cl (stereo not drawn),AC50,[1],"15.8 µM [falling, partial curve]"
CCc1nnc(NC(=O)CSc2nc3c([nH]c4ccccc43)c(=O)n2-c2cc(C)cc(C)c2)s1,AC50,[1],"39.8 µM [falling, single point]"
CC(=O)[C@@H]1[C@@H]2C(=O)N(c3ccc(F)c(Cl)c3)C(=O)[C@@H]2C2c3ccccc3C=CN21 (stereo partly drawn),AC50,[1],"1.26 µM [falling, partial curve]"
COc1ccc(CC(=O)Nc2nc3c(s2)CC(C(C)(C)C)CC3)cc1 (stereo not drawn),AC50,[1],"39.8 µM [rising, partial curve]"
C(=N/Nc1nnc2c(n1)[nH]c1ccccc12)/c1cccnc1,AC50,[1],"0.794 µM [falling, partial curve]"
O=C(CC1Sc2ncnn2C1=O)Nc1ccc(Br)cc1 (stereo not drawn),AC50,[1],"25.1 µM [falling, partial curve]"
Cc1ccc(-c2nc3c(c(SCC(=O)N4CCCCC4)n2)Cc2cc(C)ccc2O3)cc1,AC50,[1],"20 µM [falling, single point]"
CCc1ccc(-c2nc(CSCC(=O)NCc3ccccc3OC)c(C)o2)cc1,AC50,[1],"25.1 µM [falling, partial curve]"
CCOc1ccc(N2CC(c3nc(-c4cc(OC)c(OC)c(OC)c4)no3)CC2=O)cc1 (stereo not drawn),AC50,[1],"31.6 µM [falling, partial curve]"
Cc1ccc(-n2nnc3c(sc4nc(C)c(C)cc43)c2=O)cc1Cl,AC50,[1],"39.8 µM [falling, single point]"
Cc1ccc(C)c(NC(=O)C2CCCN(S(=O)(=O)c3c(C)noc3/C=C/N(C)C)C2)c1 (stereo not drawn),AC50,[1],"25.1 µM [falling, single point]"
O=C(NC1CCCC1)c1c[nH]c2ccc(S(=O)(=O)Nc3cccc(C(F)(F)F)c3)cc2c1=O,AC50,[1],"15.8 µM [falling, partial curve]"
CC(=O)OCC#CCSc1nnc(-c2cccc(Br)c2)o1,AC50,[1],"3.98 µM [rising, single point]"
CCN(c1ccccc1)S(=O)(=O)c1nnc(NC(=O)COc2ccc(OC)cc2)s1,AC50,[1],"2 µM [rising, partial curve]"
COCCNC(=O)C1CCN(S(=O)(=O)c2ccc3c(c2)CCCN3C(C)=O)CC1,AC50,[1],"0.0794 µM [falling, full curve, poor fit]"
COc1ccc(-c2nc3n(n2)C(c2ccc(OC)cc2)C(C(=O)Nc2cccnc2)=C(C)N3)cc1 (stereo not drawn),AC50,[1],"12.6 µM [falling, partial curve]"
O=C(C1CCC(CNS(=O)(=O)c2ccc(Br)s2)CC1)N1CCN(c2ccccc2)CC1 (stereo not drawn),AC50,[1],"3.98 µM [falling, partial curve, poor fit]"
O=C(NCc1cccs1)C1CCN(S(=O)(=O)c2ccc(Br)s2)CC1,AC50,[1],"31.6 µM [falling, partial curve]"
CCOC(=O)CNc1c(-c2ccc(O)cc2)nc2ccc(Cl)cn12,AC50,[1],"31.6 µM [falling, partial curve]"
COc1ccc(-n2ncc3c(N4CCN(c5cccc(C)c5)C(C)C4)ncnc32)cc1 (stereo not drawn),AC50,[1],"1.26 µM [falling, full curve]"
O=C1C(=O)c2ccccc2C(O)=C1C1CCC(c2ccc(Cl)cc2)CC1 (stereo not drawn),AC50,[1],"5.01 µM [falling, full curve, poor fit]"
O=C(NCc1ccc2c(c1)OCO2)c1ccc(COc2cccc(Cl)c2)o1,AC50,[1],"15.8 µM [falling, partial curve]"
Cc1ccc(SCc2cn3c(C)csc3n2)cc1,AC50,[1],"12.6 µM [falling, partial curve]"
COc1ccc(Cl)cc1NC(=O)CCc1nc(-c2ccccc2F)no1,AC50,[1],"39.8 µM [falling, single point]"
O=C(Cn1c(=O)n(Cc2ccc3c(c2)OCO3)c(=O)c2ccccc21)Nc1cccc(Cl)c1,AC50,[1],"12.6 µM [falling, partial curve]"
Cc1c(C(=O)N2CCCC2)oc2c1-c1nn(CC(=O)NCc3cccc(Br)c3)cc1CC2,AC50,[1],"7.94 µM [falling, partial curve]"
CCc1nnc(NC(=O)CCC(=O)N2CCN(Cc3ccccc3)CC2)s1,AC50,[1],"6.31 µM [falling, partial curve]"
Cc1ccc(NC(=O)CCn2cccn2)cc1Cl,AC50,[1],"3.98 µM [rising, partial curve]"
O=C1CC(SCc2nc3ccccc3[nH]2)C(=O)N1c1cccc(F)c1 (stereo not drawn),AC50,[1],"10 µM [falling, partial curve]"
COc1ccc(NC(=O)Cn2c(=O)n(-c3ccccc3)c(=O)c3c4c(sc32)CCCC4)cc1,AC50,measured here: IkB-luc green channel,"39.8 µM [rising, single point]"
same,AC50,measured here: control luc red channel,"0.126 µM [rising, full curve]"
O=C(CN(c1ccc2c(c1)OCCO2)S(=O)(=O)c1ccccc1)Nc1ccc2c(c1)OCO2,AC50,[1],"10 µM [falling, partial curve]"
C=CCn1c(SCC(=O)Nc2ccc3c(c2)CCC3)nnc1-c1cccs1,AC50,[1],"20 µM [falling, partial curve]"
Cc1cc(C)cc(Nc2cc(-c3ccccc3)nc(C)n2)c1,AC50,[1],"15.8 µM [falling, partial curve]"
CCCCN(C)c1nnc(NC(=O)Nc2cccc(C(C)=O)c2)s1,AC50,[1],"20 µM [falling, partial curve]"
COC(=O)c1c(NC(=O)c2cc3nc(-c4ccc(OC)cc4)cc(C(F)(F)F)n3n2)sc2c1CCCC2,AC50,[1],"6.31 µM [rising, partial curve]"
COc1ccc(-c2cc(NCc3ccc(F)cc3)n3cnnc3n2)cc1,AC50,[1],"31.6 µM [falling, single point]"
Cc1cc(OCC(=O)NCC2(N3CCN(C)CC3)CCCCC2)cc(C)c1Cl,AC50,[1],"15.8 µM [falling, single point]"
Cc1nn(CC(=O)NCCc2ccc(Cl)cc2)c(=O)c2cc3cc(F)ccc3n12,AC50,[1],"20 µM [falling, single point]"
Cc1ccc(-n2nc3c(N4CCC(C(=O)N5CCCCC5)CC4)nnc(C)c3c2C)cc1,AC50,[1],"10 µM [falling, partial curve]"
CCCc1cc(N2CCN(c3cc(Cl)ccc3C)CC2)n2cnnc2n1,AC50,[1],"15.8 µM [falling, partial curve]"
c1ccc(-n2ncc3c(NCc4cccnc4)ncnc32)cc1,AC50,[1],"15.8 µM [falling, partial curve]"
Cc1sc2c(c1C)c(=O)n(CCc1ccccc1)c(=O)n2Cc1cccc(F)c1,AC50,[1],"25.1 µM [falling, partial curve, poor fit]"
O=C(C1CCC1)N1CCc2cc(S(=O)(=O)NCCN3CCN(c4ccccc4F)CC3)ccc21,AC50,[1],"15.8 µM [falling, partial curve]"
CCn1c(=O)cc(SCC(=O)Nc2ccc3c(c2)OCCO3)c2ccccc21,AC50,[1],"15.8 µM [falling, partial curve]"
Cc1ccc(-n2c(=O)c3c(c4cc(C)ccc4n3C)n(CC(=O)NCc3ccccc3Cl)c2=O)cc1,AC50,[1],"25.1 µM [falling, single point]"
CCc1nnc2n1N=C(c1ccc(-c3cc(Cl)ccc3Cl)o1)CS2,AC50,[1],"6.31 µM [falling, partial curve]"
COc1ccc(CCC(=O)NC2CC(=O)N(c3ccc(C)cc3)C2)cc1 (stereo not drawn),AC50,[1],"3.98 µM [falling, partial curve]"
CCCCNC(=O)C(CC)Sc1nnc(-c2cccc(F)c2)c(-c2cccc(F)c2)n1 (stereo not drawn),AC50,[1],"25.1 µM [falling, single point]"
CCCCOC(=O)c1ccc(Nc2ncnc3[nH]ncc23)cc1,AC50,[1],"3.98 µM [rising, partial curve]"
CC(=O)Nc1c(C)nn(-c2ccccc2)c1N1CCC(C(=O)NCc2ccc(Cl)cc2)CC1,AC50,[1],"20 µM [falling, single point]"
Cc1cc(C)cc(N2CC(c3nc(-c4ccccc4C)no3)CC2=O)c1 (stereo not drawn),AC50,[1],"25.1 µM [falling, single point]"
CCOC(=O)c1ccc(NC(=O)CN(c2ccc(C)cc2)S(=O)(=O)c2c(C)noc2C)cc1,AC50,[1],"20 µM [falling, single point]"
Cc1nc2c(C(=O)NCCc3ccc(Cl)cc3)cnn2c(C)c1Cc1c(F)cccc1Cl,AC50,[1],"31.6 µM [falling, partial curve]"
COc1ccc(-c2cc3nc(C)c(CCC(=O)N4CCN(c5cccc(Cl)c5)CC4)c(C)n3n2)c(OC)c1,AC50,[1],"2 µM [falling, full curve]"
O=C(NCc1cccs1)c1ccc2c(c1)N(Cc1ccccc1Cl)C(=O)c1ccccc1S2,AC50,[1],"5.01 µM [falling, full curve]"
Cc1ccccc1-c1ncnn1-c1sc2c(c1C#N)CCCCC2,AC50,[1],"0.0794 µM [falling, full curve]"
COc1ccc(CNC(=O)c2cc3cc(C)ccc3n2C)cc1,AC50,[1],"10 µM [falling, single point]"
Cn1c(=O)c2c(nc(SCC(=O)Nc3ccc(OC(F)(F)F)cc3)n2Cc2cccc(C(F)(F)F)c2)n(C)c1=O,AC50,[1],"12.6 µM [falling, partial curve]"
COc1ccc(N2CCN(c3nc4ccccc4n3CC(=O)c3ccccc3)CC2)cc1,AC50,[1],"39.8 µM [falling, single point]"
CCOC(=O)c1sc2ccccc2c1S(=O)(=O)Nc1c(C)cccc1C,AC50,[1],"0.794 µM [falling, full curve, poor fit]"

# 5 entries drawn at random from the list so far, as already listed:
compound,measurement,setting,value
O=C1CC(c2nc3ccccc3n2CCCCOc2ccccc2)CN1c1ccccc1Cl (stereo not drawn),AC50,[1],"15.8 µM [falling, partial curve]"
O=C(CN(c1ccc2c(c1)OCCO2)S(=O)(=O)c1ccccc1)Nc1ccc2c(c1)OCO2,AC50,[1],"10 µM [falling, partial curve]"
CCOC(=O)c1sc2ccccc2c1S(=O)(=O)Nc1c(C)cccc1C,AC50,[1],"0.794 µM [falling, full curve, poor fit]"
Cc1ccc(-n2c(=O)c3c(c4cc(C)ccc4n3C)n(CC(=O)NCc3ccccc3Cl)c2=O)cc1,AC50,[1],"25.1 µM [falling, single point]"
O=C(NCc1cccs1)c1ccc2c(c1)N(Cc1ccccc1Cl)C(=O)c1ccccc1S2,AC50,[1],"5.01 µM [falling, full curve]"
